For one substance, binding results are on record in publication PMC6265295.

By UniProt entry, the sequences of proteins in these tests, tags left out.
UniProt Q15286: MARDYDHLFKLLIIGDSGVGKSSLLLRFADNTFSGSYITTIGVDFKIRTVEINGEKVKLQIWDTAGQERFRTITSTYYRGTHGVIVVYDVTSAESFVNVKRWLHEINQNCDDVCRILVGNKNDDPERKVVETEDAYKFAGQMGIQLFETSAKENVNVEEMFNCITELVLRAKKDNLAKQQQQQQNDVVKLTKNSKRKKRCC

These are yes or no findings as the source states them, for the method shown. Binding seen in cells or lysates may run through a third protein. Some results given as binding are weak or reduced against the parent protein; the word gives no strength. Sequences can lack the tags named with a protein.

The target of the test is T1, GFP-PODXL (UniProt Q28645).
T1 sequence: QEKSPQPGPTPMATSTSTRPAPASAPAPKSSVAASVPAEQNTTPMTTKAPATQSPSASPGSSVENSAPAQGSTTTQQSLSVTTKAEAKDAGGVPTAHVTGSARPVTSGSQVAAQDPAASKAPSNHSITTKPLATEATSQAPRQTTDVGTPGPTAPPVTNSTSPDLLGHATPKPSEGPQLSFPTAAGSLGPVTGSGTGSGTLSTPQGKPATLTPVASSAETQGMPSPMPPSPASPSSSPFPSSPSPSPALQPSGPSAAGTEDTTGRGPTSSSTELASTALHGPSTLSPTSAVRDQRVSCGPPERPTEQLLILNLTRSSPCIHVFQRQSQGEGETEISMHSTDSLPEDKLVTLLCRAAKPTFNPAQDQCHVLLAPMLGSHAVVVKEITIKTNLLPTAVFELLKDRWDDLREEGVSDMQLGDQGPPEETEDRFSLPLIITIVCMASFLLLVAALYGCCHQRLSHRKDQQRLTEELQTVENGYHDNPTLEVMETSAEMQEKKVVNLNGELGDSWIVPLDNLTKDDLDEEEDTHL
In words: co-IP; GFP-tagged proteins were immunoprecipitated from lysates of transfected H1299 cells (p53-/- or p53R273H) with an anti-GFP antibody conjugated to magnetic beads. Partners were detected by western blotting. On the technique in general: A western blot detects proteins with antibodies after separation by electrophoresis.

As for “Rab35, endogenous (from UniProt Q15286 1-201)”, the binding entry is listed as “binds”.
